One experiment deals with SOX2-HA (human) (UniProt P48431). The experiment is described as follows: co-IP.
For a further experiment, the target named is Flag-USP9x (UniProt Q93008). The experiment is described as follows: co-IP.

By UniProt entry, the sequences of proteins in these tests, tags left out.
UniProt P48431: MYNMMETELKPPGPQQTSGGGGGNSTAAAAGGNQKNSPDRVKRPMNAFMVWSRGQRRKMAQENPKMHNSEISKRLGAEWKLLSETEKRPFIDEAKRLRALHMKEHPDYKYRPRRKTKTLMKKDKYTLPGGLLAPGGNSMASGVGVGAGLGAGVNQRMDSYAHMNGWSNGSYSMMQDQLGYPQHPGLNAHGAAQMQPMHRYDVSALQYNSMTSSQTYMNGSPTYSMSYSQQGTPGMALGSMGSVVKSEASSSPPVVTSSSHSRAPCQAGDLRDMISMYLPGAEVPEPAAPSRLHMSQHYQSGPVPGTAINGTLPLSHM
UniProt Q93008: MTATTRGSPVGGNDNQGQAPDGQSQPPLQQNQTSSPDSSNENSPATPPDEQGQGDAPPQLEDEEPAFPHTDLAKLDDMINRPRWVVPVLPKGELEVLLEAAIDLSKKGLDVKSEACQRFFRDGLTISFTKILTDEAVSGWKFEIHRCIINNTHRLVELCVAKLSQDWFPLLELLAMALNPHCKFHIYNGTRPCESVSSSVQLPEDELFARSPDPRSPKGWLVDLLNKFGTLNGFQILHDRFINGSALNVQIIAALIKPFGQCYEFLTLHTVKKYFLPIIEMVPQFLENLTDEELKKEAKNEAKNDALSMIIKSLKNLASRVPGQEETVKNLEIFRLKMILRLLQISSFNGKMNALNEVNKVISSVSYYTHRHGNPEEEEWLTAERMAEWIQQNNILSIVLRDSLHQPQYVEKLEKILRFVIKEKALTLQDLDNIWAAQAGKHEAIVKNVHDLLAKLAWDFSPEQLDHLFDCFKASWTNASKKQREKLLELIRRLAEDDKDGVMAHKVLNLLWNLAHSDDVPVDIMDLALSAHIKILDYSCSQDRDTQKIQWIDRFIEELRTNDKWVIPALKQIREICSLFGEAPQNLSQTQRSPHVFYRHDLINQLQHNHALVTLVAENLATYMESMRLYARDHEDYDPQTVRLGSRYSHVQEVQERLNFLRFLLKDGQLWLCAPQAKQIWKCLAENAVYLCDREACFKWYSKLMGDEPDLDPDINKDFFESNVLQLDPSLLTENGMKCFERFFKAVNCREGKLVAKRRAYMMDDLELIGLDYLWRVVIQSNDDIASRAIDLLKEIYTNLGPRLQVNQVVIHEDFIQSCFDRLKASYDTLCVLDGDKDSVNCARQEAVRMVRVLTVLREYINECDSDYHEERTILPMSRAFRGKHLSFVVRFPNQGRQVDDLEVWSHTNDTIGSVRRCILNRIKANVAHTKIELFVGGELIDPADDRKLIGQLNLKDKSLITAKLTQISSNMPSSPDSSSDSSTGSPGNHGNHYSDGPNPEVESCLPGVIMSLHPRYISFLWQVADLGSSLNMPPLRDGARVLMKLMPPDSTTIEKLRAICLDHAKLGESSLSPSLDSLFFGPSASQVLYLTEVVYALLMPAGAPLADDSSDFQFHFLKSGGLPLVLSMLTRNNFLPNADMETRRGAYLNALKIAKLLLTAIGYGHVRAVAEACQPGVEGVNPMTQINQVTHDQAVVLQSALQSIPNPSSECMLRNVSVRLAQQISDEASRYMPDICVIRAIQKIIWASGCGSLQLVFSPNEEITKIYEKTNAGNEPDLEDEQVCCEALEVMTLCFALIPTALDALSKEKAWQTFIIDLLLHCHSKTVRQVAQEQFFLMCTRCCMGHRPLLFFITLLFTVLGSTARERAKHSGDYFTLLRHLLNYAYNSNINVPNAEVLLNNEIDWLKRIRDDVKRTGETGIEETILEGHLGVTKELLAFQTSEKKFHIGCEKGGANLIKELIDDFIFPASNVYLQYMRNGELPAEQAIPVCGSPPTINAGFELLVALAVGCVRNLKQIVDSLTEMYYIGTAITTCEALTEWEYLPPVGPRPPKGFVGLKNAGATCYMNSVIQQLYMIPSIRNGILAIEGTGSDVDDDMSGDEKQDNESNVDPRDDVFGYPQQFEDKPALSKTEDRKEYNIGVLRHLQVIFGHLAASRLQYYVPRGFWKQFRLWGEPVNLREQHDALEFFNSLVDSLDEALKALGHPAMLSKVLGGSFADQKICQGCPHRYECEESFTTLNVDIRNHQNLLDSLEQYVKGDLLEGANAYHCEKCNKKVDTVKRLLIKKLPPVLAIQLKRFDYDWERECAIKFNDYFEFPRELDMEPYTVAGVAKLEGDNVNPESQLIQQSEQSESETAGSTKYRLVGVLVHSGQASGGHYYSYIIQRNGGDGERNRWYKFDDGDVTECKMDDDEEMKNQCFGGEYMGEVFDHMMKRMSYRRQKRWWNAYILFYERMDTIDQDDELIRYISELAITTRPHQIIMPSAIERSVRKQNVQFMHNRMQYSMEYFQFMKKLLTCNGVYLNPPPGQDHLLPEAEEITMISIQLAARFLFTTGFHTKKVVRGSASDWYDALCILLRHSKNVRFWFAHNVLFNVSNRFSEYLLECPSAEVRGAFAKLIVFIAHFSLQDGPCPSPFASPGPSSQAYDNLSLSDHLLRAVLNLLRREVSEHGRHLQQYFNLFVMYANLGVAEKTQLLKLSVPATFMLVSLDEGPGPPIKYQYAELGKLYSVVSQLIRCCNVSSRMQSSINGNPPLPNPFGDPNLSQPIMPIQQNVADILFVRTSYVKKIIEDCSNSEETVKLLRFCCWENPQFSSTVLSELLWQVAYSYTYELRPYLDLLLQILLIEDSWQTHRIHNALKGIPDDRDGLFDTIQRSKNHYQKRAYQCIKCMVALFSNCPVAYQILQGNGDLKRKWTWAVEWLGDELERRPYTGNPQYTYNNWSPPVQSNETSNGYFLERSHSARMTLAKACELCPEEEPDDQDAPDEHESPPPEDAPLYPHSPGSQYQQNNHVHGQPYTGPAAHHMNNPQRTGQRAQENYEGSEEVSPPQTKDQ

No constants are given. Whether binding was seen depends on the method and setting. Binding seen in cells or lysates may run through a third protein. Some entries that bind do so weakly or less than the wild type.

Regarding “Flag-USP9x (from UniProt Q93008 1-2554) (enzyme)”, the binding result with SOX2-HA (human) was “binds”. In the case of SOX2-HA (from UniProt P48431 1-317), the binding result with Flag-USP9x is “binds”.

(Values after doi:10.1101/714741.)
